In PMC9560605 one finds binding data, which are given here for one substance.

Amino acid sequences for entries named in this document (tags omitted). A change or cut given only in a name is not applied to a line headed by its entry.
UniProt Q9TZB2: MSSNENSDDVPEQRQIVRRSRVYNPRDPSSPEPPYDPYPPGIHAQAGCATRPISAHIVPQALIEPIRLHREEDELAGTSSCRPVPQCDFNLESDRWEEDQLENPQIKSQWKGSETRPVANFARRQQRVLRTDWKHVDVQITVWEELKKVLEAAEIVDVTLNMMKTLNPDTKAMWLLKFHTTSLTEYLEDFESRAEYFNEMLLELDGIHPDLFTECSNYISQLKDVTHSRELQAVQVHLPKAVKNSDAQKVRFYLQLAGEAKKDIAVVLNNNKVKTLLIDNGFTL
UniProt Q3V5H4: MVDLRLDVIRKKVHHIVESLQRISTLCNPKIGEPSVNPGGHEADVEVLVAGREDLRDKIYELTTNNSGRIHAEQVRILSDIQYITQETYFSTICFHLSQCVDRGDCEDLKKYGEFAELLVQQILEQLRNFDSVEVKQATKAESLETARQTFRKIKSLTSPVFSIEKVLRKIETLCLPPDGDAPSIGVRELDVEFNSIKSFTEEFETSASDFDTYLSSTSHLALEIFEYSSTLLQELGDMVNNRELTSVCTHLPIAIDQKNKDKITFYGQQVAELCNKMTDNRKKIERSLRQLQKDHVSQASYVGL

No constants are given. Whether binding was seen depends on the method and setting. Binding seen in cells or lysates may run through a third protein. Binding calls can cover weak binding; strength is not graded here.

This test has as its target PALS-22::GFP::3xFLAG (C. elegans) (UniProt Q9TZB2). Put plainly: co-IP; anti-FLAG M2 affinity gel on 1 mg C. elegans lysate (1 ug/ul) of strains expressing PALS-22::GFP::3xFLAG (pals-22p, vha-6p or dpy-7p) or GFP::3xFLAG (spp-5p), 4°C, 2 h; Western blot with anti-PALS-25.

“PALS-25(WT), endogenous (from UniProt Q3V5H4)”: the binding entry is “binds”.
